{"source": "PubChem BioAssay AID2685", "about": "(National Center for Advancing Translational Sciences (NCATS), 2010)", "experiment": "qHTS Assay for Lipid Storage Modulators in Drosophila S3 Cells;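 as to cell number change: cells counted by Cell Tracker Red CMTPX staining in the red channel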", "details": "BODIPY lipid droplet fluorescence, 18-24 h; for cell number change: measured here: cell count max response, cells fed with added oleic acid", "outline": "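Drosophila S3 cells got compounds at several concentrations plus oleic acid (400 uM solution). Laser-scanning cytometry with 488 nm excitation read lipid droplets at 500-530 nm and cells at 575-640 nm. Percent activity was relative to 20 uM Triacsin C.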", "key": {"[1]": {"details": "measured here: lipid fluorescence (Fed channel) AC50, cells fed with added oleic acid"}, "[2]": {"details": "measured here: cell number channel AC50, cells fed with added oleic acid"}}, "note": "This is one part of the list. These are further read-outs of the screen, such as a control signal, another cell line or another target. No call is given for them. Compounds called inactive in the main read-out are mostly missing here. The note in brackets gives the kind of curve behind each potency; many fits are weak.", "data": [{"compound": "OCCNc1ncnc2ccc(Br)cc12", "values": [{"measurement": "cell number change", "result": -18.9, "unit": "%"}, {"measurement": "AC50", "setting": "[1]", "result": "29.1 µM [falling, single point]"}]}, {"compound": "COc1ccc(-c2cc(C(F)(F)F)nc(S(=O)(=O)CCCC(=O)Nc3cccnc3Cl)n2)cc1OC", "values": [{"measurement": "cell number change", "result": -140, "unit": "%"}, {"measurement": "AC50", "setting": "[2]", "result": "29.1 µM [falling, partial curve]"}, {"measurement": "AC50", "setting": "[1]", "result": "29.1 µM [falling, partial curve, poor fit]"}]}, {"compound": "Cc1cc(C)n2cc(CSc3nnc(-c4ccccc4)o3)nc2n1", "values": [{"measurement": "cell number change", "result": -1.67, "unit": "%"}, {"measurement": "AC50", "setting": "[1]", "result": "0.58 µM [rising, single point]"}]}, {"compound": "CCNC(=O)COC(=O)c1cc(-c2ccco2)nc2ccccc12", "values": [{"measurement": "cell number change", "result": -49.4, "unit": "%"}]}, {"compound": "O=c1[nH]c(C2CCN(S(=O)(=O)c3ccc(S(=O)(=O)NC4CC4)cc3)CC2)nc2c1nnn2Cc1cccc(F)c1", "values": [{"measurement": "cell number change", "result": -18.1, "unit": "%"}]}, {"compound": "O=[N+]([O-])c1cc(S(=O)(=O)C(F)(F)F)ccc1N1CCN(c2ccccc2)CC1", "values": [{"measurement": "cell number change", "result": -4.22, "unit": "%"}, {"measurement": "AC50", "setting": "[1]", "result": "13 µM [falling, partial curve]"}]}, {"compound": "O=C1CC(Sc2ncccn2)C(=O)N1c1ccccc1", "note": "(centres undefined)", "values": [{"measurement": "cell number change", "result": -58.4, "unit": "%"}, {"measurement": "AC50", "setting": "[2]", "result": "4.11 µM [falling, single point]"}]}, {"compound": "COc1ccc(/C=C/C(=O)Nc2ccc(N3CCOCC3)cc2)cc1", "values": [{"measurement": "cell number change", "result": 0.439, "unit": "%"}, {"measurement": "AC50", "setting": "[1]", "result": "32.6 µM [falling, single point]"}]}, {"compound": "C(=N\\Nc1ccc2ccccc2n1)/c1ccc2c(c1)OCO2", "values": [{"measurement": "cell number change", "result": 1.1, "unit": "%"}]}, {"compound": "COCCCNC(=O)CN1CCN(Cc2ccc(Cl)cc2)C1=O", "values": [{"measurement": "cell number change", "result": -13.4, "unit": "%"}, {"measurement": "AC50", "setting": "[1]", "result": "0.164 µM [falling, full curve, poor fit]"}]}, {"compound": "O=C(Nc1sc2c(c1-c1nc3ccccc3[nH]1)CCCC2)C1CC1", "values": [{"measurement": "cell number change", "result": -22.8, "unit": "%"}, {"measurement": "AC50", "setting": "[1]", "result": "2.06 µM [rising, partial curve]"}]}, {"compound": "O=S(=O)(NCC1CN(S(=O)(=O)c2c(F)cccc2F)C1)c1ccc2c(c1)OCCO2", "values": [{"measurement": "cell number change", "result": -37.3, "unit": "%"}, {"measurement": "AC50", "setting": "[2]", "result": "16.4 µM [falling, partial curve]"}, {"measurement": "AC50", "setting": "[1]", "result": "18.4 µM [falling, partial curve]"}]}, {"compound": "O=C(O)C1CC=CCC1C(=O)N1CCN(c2nc(-c3ccccc3Cl)c3cc(Br)ccc3n2)CC1", "note": "(centres undefined)", "values": [{"measurement": "cell number change", "result": -11.6, "unit": "%"}, {"measurement": "AC50", "setting": "[1]", "result": "2.91 µM [rising, single point]"}]}, {"compound": "COc1ccccc1-c1cc(-c2ccc(C)cc2)nc(SCc2nnc(-c3ccccc3)o2)c1C#N", "values": [{"measurement": "AC50", "setting": "[2]", "result": "0.184 µM [rising, full curve, poor fit]"}, {"measurement": "AC50", "setting": "[1]", "result": "0.731 µM [rising, full curve]"}]}, {"compound": "CC(C)(O)C1=NOC(c2ccccc2)C1", "note": "(centres undefined)", "values": [{"measurement": "cell number change", "result": -61.1, "unit": "%"}, {"measurement": "AC50", "setting": "[2]", "result": "16.4 µM [falling, single point]"}, {"measurement": "AC50", "setting": "[1]", "result": "29.1 µM [falling, single point]"}]}, {"compound": "COc1ccc(-c2csc3ncnc(N4CCN(S(=O)(=O)c5cccs5)CC4)c23)cc1", "values": [{"measurement": "cell number change", "result": -6.83, "unit": "%"}]}, {"compound": "c1ccc(CNc2nc(-c3cccs3)nc3ccccc23)cc1", "values": [{"measurement": "cell number change", "result": 54, "unit": "%"}, {"measurement": "AC50", "setting": "[2]", "result": "18.4 µM [rising, partial curve, poor fit]"}, {"measurement": "AC50", "setting": "[1]", "result": "29.1 µM [rising, single point]"}]}, {"compound": "CCCC(=O)NC(c1ccccc1)c1c(O)ccc2ccccc12", "note": "(centres undefined)", "values": [{"measurement": "cell number change", "result": -12, "unit": "%"}]}, {"compound": "COc1ccc(OC)c(S(=O)(=O)N2CCCC2C(=O)N2CCc3ccccc3C2)c1", "note": "(centres undefined)", "values": [{"measurement": "cell number change", "result": -7.89, "unit": "%"}, {"measurement": "AC50", "setting": "[1]", "result": "0.562 µM [falling, full curve]"}]}, {"compound": "Cc1onc(-c2ccccc2)c1-c1csc(N/N=C/c2ccccc2Cl)n1", "values": [{"measurement": "cell number change", "result": 37.8, "unit": "%"}, {"measurement": "AC50", "setting": "[2]", "result": "29.1 µM [rising, single point]"}, {"measurement": "AC50", "setting": "[1]", "result": "29.1 µM [rising, single point]"}]}, {"compound": "CC1(C)Cc2c(sc(NC(=O)Cc3ccccc3)c2C#N)CO1", "values": [{"measurement": "cell number change", "result": 29.2, "unit": "%"}, {"measurement": "AC50", "setting": "[1]", "result": "29.1 µM [rising, single point]"}]}, {"compound": "COc1ccc(S(=O)(=O)Nc2c(C)nc3nc(C)[nH]n3c2=O)cc1", "values": [{"measurement": "AC50", "setting": "[2]", "result": "6.51 µM [rising, partial curve, poor fit]"}]}, {"compound": "CC(C)CCOc1ccccc1C(N)=O", "values": [{"measurement": "cell number change", "result": 83.4, "unit": "%"}, {"measurement": "AC50", "setting": "[2]", "result": "29.1 µM [rising, single point]"}]}, {"compound": "CSc1ccccc1NC(=O)COc1ccc(Cl)cc1", "values": [{"measurement": "cell number change", "result": 86, "unit": "%"}, {"measurement": "AC50", "setting": "[1]", "result": "4.11 µM [falling, partial curve, poor fit]"}]}, {"compound": "COc1ccccc1N1CCN(/N=C/c2cc(OC)c(O)c(OC)c2)CC1", "values": [{"measurement": "cell number change", "result": 4.44, "unit": "%"}, {"measurement": "AC50", "setting": "[1]", "result": "1.64 µM [rising, partial curve, poor fit]"}]}, {"compound": "Cc1c(CC(=O)N[C@@H](C)C(=O)O)c(=O)oc2cc3c(cc12)CCC(C)(C)O3", "values": [{"measurement": "cell number change", "result": -19.1, "unit": "%"}]}, {"compound": "COc1cc(/C=C2\\SC(=S)N(NS(=O)(=O)c3ccc(C)cc3)C2=O)ccc1O", "values": [{"measurement": "cell number change", "result": -99.1, "unit": "%"}, {"measurement": "AC50", "setting": "[2]", "result": "29.1 µM [falling, single point]"}, {"measurement": "AC50", "setting": "[1]", "result": "20.6 µM [falling, partial curve]"}]}, {"compound": "Cc1ccc(S(=O)(=O)N2CCOCC2)cc1C(=O)NNC(=O)c1ccoc1C", "values": [{"measurement": "cell number change", "result": 24.4, "unit": "%"}, {"measurement": "AC50", "setting": "[1]", "result": "0.651 µM [rising, single point]"}]}, {"compound": "COc1ccc(NC(=S)NC(=O)Cc2ccccc2)c(OC)c1", "values": [{"measurement": "cell number change", "result": 15.3, "unit": "%"}, {"measurement": "AC50", "setting": "[1]", "result": "0.146 µM [rising, full curve]"}]}, {"compound": "CCOc1ccccc1NC(=S)NC(=O)C1CCCCC1", "values": [{"measurement": "cell number change", "result": 12.5, "unit": "%"}, {"measurement": "AC50", "setting": "[1]", "result": "11.2 µM [rising, partial curve]"}]}]}
